For this assay, the target named is mitogen-activated protein kinase 14 (human (endogenous in HL-60)) (UniProt Q16539). Description: small molecule arranged thermal proximity coaggregation (smarTPCA) by ITDR-CETSA; living HL-60 cells treated 1 h at 37 °C with 0.3 nM-20 µM AMG-548 or SB203580; […] °C for 3 min; soluble fraction read by immunoblot; similarity of dose-responses to that of MAPK14. (In general: Immunoblotting shows a protein as a band on a membrane.)

Sequences of proteins named here, by UniProt entry; tags and fusion partners are left off.
UniProt Q16539: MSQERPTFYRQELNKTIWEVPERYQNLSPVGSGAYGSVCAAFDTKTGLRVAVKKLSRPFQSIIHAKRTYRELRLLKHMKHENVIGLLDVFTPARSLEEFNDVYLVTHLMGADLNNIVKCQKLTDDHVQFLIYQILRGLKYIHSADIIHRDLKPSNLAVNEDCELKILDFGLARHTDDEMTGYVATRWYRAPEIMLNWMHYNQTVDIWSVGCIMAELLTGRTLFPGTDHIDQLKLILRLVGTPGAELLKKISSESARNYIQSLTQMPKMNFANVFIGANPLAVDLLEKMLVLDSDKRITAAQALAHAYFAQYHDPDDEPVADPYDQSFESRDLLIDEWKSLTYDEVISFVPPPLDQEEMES
UniProt Q16644: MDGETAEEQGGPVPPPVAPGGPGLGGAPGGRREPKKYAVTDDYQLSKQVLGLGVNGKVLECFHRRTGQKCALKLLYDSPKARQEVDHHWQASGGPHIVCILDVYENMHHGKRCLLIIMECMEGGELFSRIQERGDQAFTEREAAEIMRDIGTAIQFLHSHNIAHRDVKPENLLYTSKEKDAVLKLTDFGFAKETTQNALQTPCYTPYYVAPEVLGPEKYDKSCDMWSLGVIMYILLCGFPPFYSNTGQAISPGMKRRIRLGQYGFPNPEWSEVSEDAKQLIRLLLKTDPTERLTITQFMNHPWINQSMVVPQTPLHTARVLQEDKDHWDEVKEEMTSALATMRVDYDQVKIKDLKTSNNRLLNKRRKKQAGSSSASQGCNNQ

These are yes or no findings as the source states them, for the method shown. In cells and extracts the contact can be indirect. Some binding calls cover weakened binding; strength is not graded here.

Results on 1 substance are retold here after PMC9147192, “Small Molecule Arranged Thermal Proximity Coaggregation (smarTPCA)—A Novel Approach to Characterize Protein–Protein Interactions in Living Cells by Similar Isothermal Dose–Responses” (International Journal of Molecular Sciences, 2022).

As to “MAP kinase-activated protein kinase 3 (from UniProt Q16644 1-382)”, the binding result is given as “binds”.
